These are yes or no findings as the source states them, for the method shown. Binding seen in cells or lysates may run through a third protein. Some results given as binding are weak or reduced against the parent protein; the word gives no strength.
Tests used:
[1] = molecular target: insulin-like growth factor-1 receptor (human (endogenous in MCF7)) (UniProt P08069); test: co-IP; total (500 ug), cytoplasmic (100 ug) and nuclear (100 ug) extracts diluted 1:2 with 1% Triton X-100, 150 mM NaCl, 20 mM Tris pH 7.5; immunoprecipitated with anti-INSR beta-subunit or anti-IGF1R beta-subunit overnight at 4°C, protein A/G-agarose 2 h; blotted with anti-p53; IgG as control
[2] = molecular target: insulin receptor (human (endogenous in MCF7)) (UniProt P06213); test: as above

Tumor suppressor p53 (from UniProt P04637 1-393)
binding [1]: binds | binding [2]: binds
